Assay results published in the supplement of paper PMC6411743.
± gives the standard deviation of the averaged measurements. The list shows a part of the results, in another mix than the full data. Most entries show no effect beyond the scatter of the controls.

Chains of the proteins cited; added tags and fusions are not shown. Lines headed by an entry give the natural chain unless they say otherwise; changes in a name come on top.
UniProt O15258: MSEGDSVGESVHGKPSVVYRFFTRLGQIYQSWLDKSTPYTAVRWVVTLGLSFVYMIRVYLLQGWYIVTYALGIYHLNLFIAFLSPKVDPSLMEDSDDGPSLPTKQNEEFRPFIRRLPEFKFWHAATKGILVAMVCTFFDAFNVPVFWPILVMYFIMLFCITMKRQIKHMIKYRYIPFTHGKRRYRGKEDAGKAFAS
UniProt Q86UU0: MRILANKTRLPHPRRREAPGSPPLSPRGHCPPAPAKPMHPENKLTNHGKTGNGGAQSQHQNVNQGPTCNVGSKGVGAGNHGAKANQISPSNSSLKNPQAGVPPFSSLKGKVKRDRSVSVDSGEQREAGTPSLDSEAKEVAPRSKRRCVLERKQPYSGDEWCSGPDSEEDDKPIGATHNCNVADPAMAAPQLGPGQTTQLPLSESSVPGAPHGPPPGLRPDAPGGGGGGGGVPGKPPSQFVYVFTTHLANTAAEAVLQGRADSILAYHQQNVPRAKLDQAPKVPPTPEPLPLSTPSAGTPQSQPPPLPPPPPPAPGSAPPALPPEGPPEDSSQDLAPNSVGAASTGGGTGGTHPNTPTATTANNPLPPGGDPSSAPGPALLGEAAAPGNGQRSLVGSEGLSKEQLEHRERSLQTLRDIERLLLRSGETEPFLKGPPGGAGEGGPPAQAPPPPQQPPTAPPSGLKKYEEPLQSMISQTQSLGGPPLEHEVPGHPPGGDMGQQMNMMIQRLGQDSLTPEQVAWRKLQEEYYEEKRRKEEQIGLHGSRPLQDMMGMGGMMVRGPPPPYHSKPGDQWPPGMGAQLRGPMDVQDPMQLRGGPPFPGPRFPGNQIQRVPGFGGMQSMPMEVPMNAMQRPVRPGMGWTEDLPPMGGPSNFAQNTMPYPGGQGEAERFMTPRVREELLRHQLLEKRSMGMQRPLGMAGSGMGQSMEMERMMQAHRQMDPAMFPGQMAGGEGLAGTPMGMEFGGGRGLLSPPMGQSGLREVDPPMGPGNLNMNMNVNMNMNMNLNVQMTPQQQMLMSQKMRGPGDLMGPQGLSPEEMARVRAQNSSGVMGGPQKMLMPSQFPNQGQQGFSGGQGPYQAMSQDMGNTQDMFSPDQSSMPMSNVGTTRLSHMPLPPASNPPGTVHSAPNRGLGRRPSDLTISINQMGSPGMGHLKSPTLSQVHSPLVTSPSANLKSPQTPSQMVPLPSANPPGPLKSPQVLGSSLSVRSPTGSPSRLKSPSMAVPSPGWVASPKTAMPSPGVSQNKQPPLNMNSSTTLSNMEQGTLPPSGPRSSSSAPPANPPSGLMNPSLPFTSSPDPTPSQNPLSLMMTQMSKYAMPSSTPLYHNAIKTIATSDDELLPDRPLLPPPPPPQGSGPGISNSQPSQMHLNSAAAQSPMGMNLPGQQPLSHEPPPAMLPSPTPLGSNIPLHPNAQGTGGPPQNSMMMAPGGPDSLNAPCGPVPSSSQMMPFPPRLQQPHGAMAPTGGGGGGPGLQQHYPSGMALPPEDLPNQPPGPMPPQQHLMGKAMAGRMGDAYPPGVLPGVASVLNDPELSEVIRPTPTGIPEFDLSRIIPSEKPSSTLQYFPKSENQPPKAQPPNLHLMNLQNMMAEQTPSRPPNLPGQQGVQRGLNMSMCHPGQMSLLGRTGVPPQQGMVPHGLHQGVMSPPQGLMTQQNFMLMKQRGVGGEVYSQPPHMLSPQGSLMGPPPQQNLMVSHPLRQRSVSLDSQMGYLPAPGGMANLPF
UniProt Q7Z739: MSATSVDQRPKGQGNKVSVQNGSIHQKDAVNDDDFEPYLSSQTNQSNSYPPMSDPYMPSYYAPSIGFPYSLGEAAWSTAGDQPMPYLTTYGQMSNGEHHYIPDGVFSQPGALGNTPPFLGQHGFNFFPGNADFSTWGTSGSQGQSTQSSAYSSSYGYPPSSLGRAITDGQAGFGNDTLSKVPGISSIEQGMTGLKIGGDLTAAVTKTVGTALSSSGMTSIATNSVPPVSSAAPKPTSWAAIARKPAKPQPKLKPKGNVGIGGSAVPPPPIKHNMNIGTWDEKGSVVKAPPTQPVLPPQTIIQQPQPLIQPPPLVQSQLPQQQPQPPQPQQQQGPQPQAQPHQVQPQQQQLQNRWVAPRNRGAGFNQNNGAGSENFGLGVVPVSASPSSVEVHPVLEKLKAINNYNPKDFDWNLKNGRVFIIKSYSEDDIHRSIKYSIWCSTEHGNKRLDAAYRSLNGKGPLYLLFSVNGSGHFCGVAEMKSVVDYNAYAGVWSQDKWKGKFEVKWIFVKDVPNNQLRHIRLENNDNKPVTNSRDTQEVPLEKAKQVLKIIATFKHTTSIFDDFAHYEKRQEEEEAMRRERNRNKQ
UniProt Q2M389: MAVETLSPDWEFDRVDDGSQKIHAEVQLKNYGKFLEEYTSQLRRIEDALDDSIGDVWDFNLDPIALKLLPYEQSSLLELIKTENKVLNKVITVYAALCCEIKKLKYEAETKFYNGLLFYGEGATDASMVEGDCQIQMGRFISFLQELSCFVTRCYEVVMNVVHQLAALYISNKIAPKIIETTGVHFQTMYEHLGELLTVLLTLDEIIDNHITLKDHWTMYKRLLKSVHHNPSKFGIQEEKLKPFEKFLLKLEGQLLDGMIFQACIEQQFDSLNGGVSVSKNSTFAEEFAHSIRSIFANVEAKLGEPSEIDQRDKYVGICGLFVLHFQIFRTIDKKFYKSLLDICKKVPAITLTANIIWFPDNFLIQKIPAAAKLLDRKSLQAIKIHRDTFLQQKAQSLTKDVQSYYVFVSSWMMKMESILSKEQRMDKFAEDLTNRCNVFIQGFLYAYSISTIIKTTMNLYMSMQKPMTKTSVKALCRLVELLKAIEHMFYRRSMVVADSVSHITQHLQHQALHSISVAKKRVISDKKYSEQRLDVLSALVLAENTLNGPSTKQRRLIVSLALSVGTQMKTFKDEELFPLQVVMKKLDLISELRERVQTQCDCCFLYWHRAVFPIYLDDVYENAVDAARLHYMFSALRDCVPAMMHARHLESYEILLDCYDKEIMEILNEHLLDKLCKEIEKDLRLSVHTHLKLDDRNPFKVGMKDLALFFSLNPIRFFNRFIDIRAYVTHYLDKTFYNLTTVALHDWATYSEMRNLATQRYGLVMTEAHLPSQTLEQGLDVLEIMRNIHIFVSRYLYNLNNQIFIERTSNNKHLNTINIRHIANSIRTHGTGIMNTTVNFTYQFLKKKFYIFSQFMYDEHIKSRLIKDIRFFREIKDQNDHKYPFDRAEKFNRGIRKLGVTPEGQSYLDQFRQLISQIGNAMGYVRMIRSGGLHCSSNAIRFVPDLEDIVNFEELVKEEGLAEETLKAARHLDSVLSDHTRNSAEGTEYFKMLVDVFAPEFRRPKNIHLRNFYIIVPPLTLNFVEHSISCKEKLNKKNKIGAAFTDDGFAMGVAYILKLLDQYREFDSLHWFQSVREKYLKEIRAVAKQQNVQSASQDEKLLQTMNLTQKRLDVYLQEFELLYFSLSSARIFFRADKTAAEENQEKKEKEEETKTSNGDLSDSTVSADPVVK
UniProt Q8N5I9: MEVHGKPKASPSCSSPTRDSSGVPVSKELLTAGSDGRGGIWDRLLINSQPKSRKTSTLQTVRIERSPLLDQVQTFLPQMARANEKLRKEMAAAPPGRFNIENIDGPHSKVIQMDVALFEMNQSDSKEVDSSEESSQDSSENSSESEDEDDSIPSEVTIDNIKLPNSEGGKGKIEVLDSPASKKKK
UniProt Q6AI08: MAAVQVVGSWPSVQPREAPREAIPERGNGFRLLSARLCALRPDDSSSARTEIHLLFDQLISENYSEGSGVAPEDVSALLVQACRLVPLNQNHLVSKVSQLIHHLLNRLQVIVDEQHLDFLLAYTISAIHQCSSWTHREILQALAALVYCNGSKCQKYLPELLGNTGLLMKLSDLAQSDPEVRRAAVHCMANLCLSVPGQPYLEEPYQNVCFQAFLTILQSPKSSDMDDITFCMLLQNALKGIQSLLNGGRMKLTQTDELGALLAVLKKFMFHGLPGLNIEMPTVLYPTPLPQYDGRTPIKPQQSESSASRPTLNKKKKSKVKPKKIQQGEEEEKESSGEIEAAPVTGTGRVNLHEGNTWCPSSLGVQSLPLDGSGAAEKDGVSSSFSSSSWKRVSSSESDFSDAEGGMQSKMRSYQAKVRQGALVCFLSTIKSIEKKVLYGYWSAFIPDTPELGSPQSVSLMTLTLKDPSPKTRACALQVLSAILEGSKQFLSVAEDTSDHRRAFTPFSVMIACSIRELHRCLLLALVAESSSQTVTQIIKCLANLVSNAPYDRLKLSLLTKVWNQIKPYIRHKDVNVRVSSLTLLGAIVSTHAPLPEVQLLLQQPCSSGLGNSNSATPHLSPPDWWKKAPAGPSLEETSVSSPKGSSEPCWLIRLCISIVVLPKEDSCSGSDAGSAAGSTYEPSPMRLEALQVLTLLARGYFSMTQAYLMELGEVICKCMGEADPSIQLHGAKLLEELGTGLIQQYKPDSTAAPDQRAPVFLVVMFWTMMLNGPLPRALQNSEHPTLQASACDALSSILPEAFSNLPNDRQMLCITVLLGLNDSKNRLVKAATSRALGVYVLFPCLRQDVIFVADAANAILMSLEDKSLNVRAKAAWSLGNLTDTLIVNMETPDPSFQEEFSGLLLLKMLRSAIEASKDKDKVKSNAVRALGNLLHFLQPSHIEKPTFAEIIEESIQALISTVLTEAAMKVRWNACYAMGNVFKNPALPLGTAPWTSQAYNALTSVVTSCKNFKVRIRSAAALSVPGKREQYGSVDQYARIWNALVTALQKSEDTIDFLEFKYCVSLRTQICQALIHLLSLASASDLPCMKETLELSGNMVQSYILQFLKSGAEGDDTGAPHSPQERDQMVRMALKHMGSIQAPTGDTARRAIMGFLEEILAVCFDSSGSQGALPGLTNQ
UniProt Q5T8P6: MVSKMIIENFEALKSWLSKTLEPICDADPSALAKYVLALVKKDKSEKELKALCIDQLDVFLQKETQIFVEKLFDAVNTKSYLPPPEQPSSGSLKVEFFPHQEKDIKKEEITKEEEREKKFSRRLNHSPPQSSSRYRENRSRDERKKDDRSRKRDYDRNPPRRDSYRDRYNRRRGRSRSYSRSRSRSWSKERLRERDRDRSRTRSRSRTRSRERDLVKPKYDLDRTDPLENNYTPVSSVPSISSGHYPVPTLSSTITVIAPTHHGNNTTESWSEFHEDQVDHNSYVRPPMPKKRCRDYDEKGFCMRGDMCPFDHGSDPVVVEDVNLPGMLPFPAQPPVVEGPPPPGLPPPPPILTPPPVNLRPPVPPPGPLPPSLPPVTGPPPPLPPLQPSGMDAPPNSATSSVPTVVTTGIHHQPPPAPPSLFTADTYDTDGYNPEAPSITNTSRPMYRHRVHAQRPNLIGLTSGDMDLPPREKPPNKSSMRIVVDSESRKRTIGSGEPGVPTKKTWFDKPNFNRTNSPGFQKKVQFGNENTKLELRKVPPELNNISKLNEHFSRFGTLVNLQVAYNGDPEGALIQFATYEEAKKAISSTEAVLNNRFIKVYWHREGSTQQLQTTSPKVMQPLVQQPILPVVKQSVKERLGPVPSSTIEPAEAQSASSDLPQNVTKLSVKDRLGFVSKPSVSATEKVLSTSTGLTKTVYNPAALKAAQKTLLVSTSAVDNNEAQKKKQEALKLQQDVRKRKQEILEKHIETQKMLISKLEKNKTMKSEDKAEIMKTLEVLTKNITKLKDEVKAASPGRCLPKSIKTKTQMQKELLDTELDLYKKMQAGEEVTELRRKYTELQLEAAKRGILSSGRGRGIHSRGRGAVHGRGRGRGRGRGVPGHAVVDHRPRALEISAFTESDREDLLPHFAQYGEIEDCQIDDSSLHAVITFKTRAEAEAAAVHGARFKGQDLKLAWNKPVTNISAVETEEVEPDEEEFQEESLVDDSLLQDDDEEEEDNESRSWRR
UniProt Q8IXQ4: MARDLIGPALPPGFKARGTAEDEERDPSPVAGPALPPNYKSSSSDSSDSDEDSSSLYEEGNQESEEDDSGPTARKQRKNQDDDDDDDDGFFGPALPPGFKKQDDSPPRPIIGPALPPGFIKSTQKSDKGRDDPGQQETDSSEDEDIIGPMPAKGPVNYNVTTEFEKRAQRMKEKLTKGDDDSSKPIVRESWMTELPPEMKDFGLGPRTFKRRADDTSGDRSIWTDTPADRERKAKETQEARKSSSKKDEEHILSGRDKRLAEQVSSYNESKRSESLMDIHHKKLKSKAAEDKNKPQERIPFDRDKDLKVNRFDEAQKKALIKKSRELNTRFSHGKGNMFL

Compound: Nc1ncnc2c1ncn2[C@@H]1O[C@H](COP(=O)(O)OP(=O)(O)OP(=O)(O)O)[C@@H](O)[C@H]1O [adenosine triphosphate]
Experiment: NP40-soluble protein abundance relative to vehicle (solubility fold change) (ratio); higher = more soluble protein in presence of ATP
Procedure, shortened: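 Data come from three independent experiments in which Dounce-homogenised Jurkat crude lysate was treated at eight concentrations from 0.1 to 10 mM. Treatment ran 10 min at room temperature and then 3 min at 37 °C, after which 0.8% NP40 and benzonase were added for 60 min at 4 °C before ultracentrifugation. The supernatant underwent TMT labelling and LC-MS/MS, and vsn-normalised intensities were expressed as fold change against the detergent-processed vehicle in each replicate.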

Target	NP40-soluble protein abundance (concentration: 0.1mM)	NP40-soluble protein abundance (concentration: 0.5mM)
A0A087WUU9|P47974 (UniProt P47974)	1.04 ± 0.04	1.01 ± 0.032
A0A0A0MR06|O15258 and related entries (UniProt O15258)	0.917 ± 0.047	0.96 ± 0.11
A0A087WZX0|Q86UU0 and related entries (UniProt Q86UU0)	0.995 ± 0.022	0.9677 ± 0.0067
A0A087X0Q1|Q7Z739 (UniProt Q7Z739)	0.966 ± 0.012	0.992 ± 0.029
A0A075B738|P16284 (UniProt P16284)	0.949 ± 0.021	0.926 ± 0.034
A0A087X1I8|Q7Z3E5 and related entries (UniProt Q7Z3E5)	1.01 ± 0.049	1.01 ± 0.058
A0A087X256|Q2M389 (UniProt Q2M389)	1.08 ± 0.11	1.07 ± 0.06
A0A087WT30|Q8N5I9 (UniProt Q8N5I9)	0.969 ± 0.015	0.975 ± 0.07
A0A087WXZ7|K7EIX2 and related entries (UniProt Q6AI08)	1.02 ± 0.029	1.01 ± 0.066
A0A0A6YY96|P48200 (UniProt P48200)	1.03 ± 0.093	1.04 ± 0.046
A0A087WUK6|A0A087WZT0|M0QZ22 and related entries (UniProt Q5PRF9)	0.953 ± 0.058	1.03 ± 0.044
A0A087X0H9|Q5T8P6 and related entries (UniProt Q5T8P6)	1.03 ± 0.016	1.23 ± 0.046
A0A0A0MRI1|Q8IXQ4 (UniProt Q8IXQ4)	0.938 ± 0.022	0.9279 ± 0.0034
A0A087WY96|P31641 (UniProt P31641)	0.944 ± 0.02	0.908 ± 0.071
A0A0A0MSK5|Q5JTV8 and related entries (UniProt Q5JTV8)	0.968 ± 0.031	0.966 ± 0.015
